PubChem BioAssay AID1259424, University of Nebraska Medical Center | 2018
The deposit covers about 14,000 reagents; this is an unselected part. 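Higher correlation or smaller distance means closer resemblance to KSR1 loss; control wells, including KSR1 knockdowns, recur on many plates.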 Not all columns of the deposit are shown. Not stated in the record: the time to read-out.

Assay: 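Seek colon cancer survival genes behaving like KSR1, using a six-gene signature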 (primary screen)
Cell system: human HCT116 colon cancer cells
Knock-down reagent: siRNA pool against human genes, 50 nM
Read-out: 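Six signature mRNAs by branched-DNA multiplex assay, scaled to two housekeeping genes and non-targeting median, log2; matched to mean KSR1 knockdown profile by Pearson correlation and euclidean distance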
Direction: mean correlation with KSR1 profile: higher = expression change more like KSR1 knockdown

| gene symbol | mean correlation with KSR1 profile |
| --- | --- |
| RAB39A | -0.316 |
| EXTL2 | -0.139 |
| LECT2 | 0.438 |
| SLC25A4 | 0.298 |
| CCL26 | -0.12 |
| RFC3 | -0.232 |
| TPT1P8 | -0.527 |
| POLDIP3 | 0.622 |
| CTTNBP2NL | 0.335 |
| KRT84 | 0.886 |
| USP14 | 0.319 |
| AXIN1 | 0.387 |
| EML4 | 0.512 |
| MPHOSPH9 | -0.244 |
| NDUFA6 | 0.533 |
| APH1A | -0.396 |
| HHATL | -0.3 |
| RUSF1 | -0.66 |
| MTFP1 | -0.323 |
| RXFP3 | 0.228 |
| TRPM2 | -0.084 |
| AMH | -0.0468 |
| BPNT2 | -0.279 |
| DYNC1I1 | 0.601 |
| TBX18 | -0.938 |
| UBA7 | -0.123 |
| PUM3 | 0.0636 |
| GUCD1 | 0.381 |
| PCP4 | -0.315 |
| TWF1 | 0.417 |
| LGI2 | -0.105 |
| GNL3 | -0.228 |
| ZNF132 | -0.546 |
| TM2D1 | 0.747 |
| SERPINA7 | 0.602 |
| CHST9 | 0.345 |
| B3GNT9 | 0.896 |
| CLEC2D | 0.0384 |
| CLMP | 0.722 |
| FZD4 | 0.203 |
| PLCL2 | 0.0482 |
| P2RX5 | -0.298 |
| GBA3 | -0.714 |
| TGFBR1 | 0.494 |
| C4BPB | -0.139 |
| LRIG1 | -0.11 |
| DNM2 | -0.578 |
| PDE4DIP | -0.0859 |
| COQ2 | -0.388 |
| HBE1 | -0.3 |
| RASD2 | -0.0686 |
| GDPD2 | -0.184 |
| ZNF460 | -0.32 |
| WSCD2 | -0.123 |
| RFTN1 | -0.305 |
| OLAH | 0.503 |
| L3MBTL3 | 0.822 |
| ATXN1 | 0.742 |
| ITPKB | 0.649 |
| BBC3 | 0.78 |
| GALNT14 | -0.795 |
| HSD17B2 | 0.494 |
| RNF181 | -0.737 |

Part of the list above, set out differently:
gene symbol,mean correlation with KSR1 profile
CHST9,0.345
B3GNT9,0.896
CLEC2D,0.0384
CLMP,0.722
FZD4,0.203
PLCL2,0.0482
